Data set [1] has as its system histamine-induced paw edema. Nature of the data set: Histamine-induced paw edema in mice (oral). The data set is classed as in vivo, mice (male CF1). The method, then: For example, the ability of the compounds to reduce histamine-induced paw edema in mice may be measured by use of the following method.
Male CF1 mice, 25-30 g, are housed under conditions of controlled temperature and humidity with a 12 hour dark/light cycle. Food and water are allowed ad libitum. The mice are randomly assigned to the treatment groups. One hour after treatment with a compound of the invention or vehicle, the mice are lightly anesthetized with ether. The left hind paw of each mouse serves as a control and is injected with 25 μl of isotonic saline. The right hind paw serves as the experimental paw and is injected with 25 μl of isotonic saline containing 13 μg histamine dihydrochloride. Thirty minutes later the mice are killed by cervical dislocation and both hind paws of each mouse are removed by cutting at the tarsal joint. The weight of each paw is recorded and the difference in weight between the compound-treated and the placebo-treated groups is evaluated using Student's "t" test. The ED50 values (the dose causing 50% inhibition of histamine-induced edema) and 95% confidence limits are determind by the Linear Least Square Dose-Response method [Brownlee, K. A., "Statistical Theory And Methodology In Science and Engineering", 2nd Ed., J. Wiley and Sons, New York, 1965, pp. 346-349].

In data set [2] the test system is histamine-induced lethality. The data set is described as follows: Prevention of histamine-induced lethality in guinea pigs (A). The data set is classed as in vivo, guinea pigs (female albino). The following applies: Cavia porcellus; oral, 1 hour prior to i.v. histamine 1.1 mg/kg; read-out: Antihistaminic Activity, A. G. pig. p.o. ED50. Here is the method:
(§1) Compounds A and B were also tested for antihistaminic activity by the procedures set forth in paragraph A below and for CNS activity by the procedures set forth in paragraphs B, C, and D below.
A. Prevention of histamine-induced lethality in guinea pigs. Compounds A and B were evaluated for their ability to protect female albino guinea pigs (250-350 g) against death induced by the intravenous injection of histamine dihydrochloride at 1.1 mg/kg, which is approximately twice the LD99. Doses of the antagonists were administered orally to separate groups of fasted animals 1 hour prior to the challenge with histamine and protection from death recorded for 30 minutes after histamine. ED50 values were determined for each drug by […].

Data set [3] in a line: Antagonism of physostigmine lethality (B). Type of data set: in vivo, mice. The following applies: mouse, physostigmine-induced lethality; oral, unit inferred; read-out: ED50 in the physostigmine-induced lethality test. Here is the method: as §1
(§2) B. Antagonism of Physostigmine Lethality. The physostigmine-induced lethality test used was a modification of the technique reported by COLLIER et al., Br. J. Pharmac., 32, 295-310 (1968). Physostigmine salicylate (b 1.0 mg/kg s.c.) produces 100% lethality when administered to mice grouped 10 per plastic cage (11×26×13 cm). Test agents were administered orally 30 minutes prior to physostigmine. The number of survivors were counted 20 minutes after physostigmine administration.
Of the above test procedures for measuring CNS activity of antihistamines, the physostigmine-induced lethality test is believed to be a major index of non-sedating characteristics, since it reflects mainly central anticholinergic potency which is believed to contribute to sedative activity.

Data set [4] can be described thus: Antagonism of acetic acid writhing (C). Conditions: mouse, oral, 15 minutes before acetic acid i.p., read-out: CNS Activity, C. Acetic writhing ED50. The data set is classed as in vivo, mice. The method, then: as §1
(§3) C. Antagonism of Acetic Acid Writhing. The acetic acid writhing test used was essentially that described by HENDERSHOT and FORSAITH, J. Pharmac. Exp. Ther., 125, 237-240 (1959), except that acetic acid rather than phenylquinone was used to elicit writhing. Mice were injected with 0.6% aqueous acetic acid at 10 mg/kg i.p. 15 minutes after oral administration of the test drug. The number of writhes for each animal was counted during a 10 minute period starting 3 minutes after acetic acid treatment. A writhe was defined as a sequence of arching of the back, pelvic rotation and hind limb extension.
On the technique in general: An intraperitoneal irritant provokes the stretching counted in writhing tests.

Data set [5] can be described thus: Antagonism of electro-convulsive shock (ECS) (D). The data set is classed as in vivo, mice. The following applies: mouse, oral, 1 hour before 13 mA shock, read-out: CNS Activity, D. ECS test ED50. Here is the method: as §1
D. Antagonism of Electro-Convulsive Shock (ECS). For the ECS test, a modification of the method of TOMAN et al., J. Neurophysiol., 9, 231-239 (1946), was used. One hour after oral administration of the test drug or vehicle, mice were administered a 13 mA, 60 cycle a.c. electroconvulsant shock (ECS) for 0.2 seconds via corneal electrodes. This shock intensity produces tonic convulsions, defined as extension of the hind limbs, in at least 95% of vehicle-treated mice.

In the next data set the test system is CNS activity. The data set is described as follows: CNS test procedures B, C and D taken together. The data set is classed as in vivo, mice. Conditions: oral. The method, then:
as §1, §2, §3
D. Antagonism of Electro-Convulsive Shock (ECS). […]

Each structure is given as a SMILES string.

For orientation: ED50 means the dose at which the effect has come halfway, by size or by number of responders. On to `Clc1ccc2c(c1)CCc1cccnc1C2=C1CCNCC1` [Compound A, 8-chloro-6,11-dihydro-11-(4-piperidylidene)-5H-benzo[5,6]cyclohepta[1,2-b]pyridine], for which the ED50 in data set [1] (Mus musculus, dose causing 50% inhibition of histamine-induced edema, oral, 1 hour before) was 0.15 mg/kg; in data set [2], 0.15 mg/kg; in data set [3], above 320 mg/kg; in data set [4] it was 147 mg/kg. Also, the “Increased Paw Weight, % Inhibition” value was found to be 11% in data set [1] (oral dose 0.03 mg/kg, 8 animals); 42% in data set [1] (oral dose 0.1 mg/kg, 7 animals); 73% in data set [1] (oral dose 0.3 mg/kg, 8 animals); 89% in data set [1] (oral dose 1.0 mg/kg, 8 animals). Besides, the ED50 at 1 h in data set [5] amounted to 160 mg/kg. Besides, in the data set on CNS activity, the “Activity in all of the CNS test procedures” value was “relatively inactive”.

These data come from patent publication US4659716A, “Antihistaminic 8-(halo)-substituted 6,11-dihydro-11-(4-piperidylidene)-5H-benzo[5,6]cyclohepta[1,2-b]pyridin es” (Schering Corporation, priority 1986, dated 1987).
